# Laboratory results reported in the supplement of paper PMC11348887.
# Counter-ions that a name gives are not always drawn. The list shows a part of the results. Most values lie at the level of the controls, where differences are scatter.
# Assays:
# Settings in all cases: 5 µM; treatment: days 7-14 after plating, readout day 21
# [1] = tested on: hPSC-derived cortical neurons (WA09); assay: nucleus area z-score vs screen plate; higher = larger nuclei (more mature)
# [2] = tested on: hPSC-derived cortical neurons (WA09); assay: total neurite length per nucleus (MAP2) z-score; higher = more neurite growth
# [3] = tested on: hPSC-derived cortical neurons (WA09); assay: nucleus roundness z-score vs screen plate; higher = rounder nuclei (more mature)
# [4] = tested on: hPSC-derived cortical neurons (WA09); assay: KCl-induced FOS+/EGR-1+ double-positive nuclei fraction z-score (KCl minus unstimulated); higher = stronger activity-induced IEG response
Structure (SMILES),nucleus area z-score [1],total neurite length per nucleus (z-score) [2],nucleus roundness z-score [3],KCl-induced FOS+/EGR-1+ double-positive nuclei fraction z-score [4]
Cc1cc(C)c(Nc2ccnc(Nc3ccc(C#N)cc3)n2)c(C)c1 [Dapivirine (TMC120)],2.2,-0.912,-0.15,-0.683
C[C@H]1CO[C@@H]2Cn3cc(C(=O)NCc4ccc(F)cc4F)c(=O)c(O)c3C(=O)N12,0.17,0.227,0.198,1.07
CCCCC1=NC2(CCCC2)C(=O)N1Cc1ccc(-c2ccccc2-c2nnn[nH]2)cc1 [Irbesartan],-0.3,0.506,-0.34,0.668
CNC(=C[N+](=O)[O-])NCCSCc1ccc(CN(C)C)o1 [Ranitidine],0.339,1.09,0.0866,0.694
Nc1ccc(-c2ccc3ncc4ccc(=O)n(-c5cccc(C(F)(F)F)c5)c4c3c2)cn1 [Torin 2],-5.1,-2.56,-0.554,-0.902
O=C(NC1CCOCC1)c1ccc(-c2cc(-c3c[nH]nc3-c3ccccn3)ccn2)cc1,1.09,-3.41,-7.61,-0.291
CCCCCCCCCCCC1=C(O)C(=O)C=C(O)C1=O [Embelin],-0.289,-0.142,0.351,-0.281
Nc1nc(=O)c2c([nH]1)NC[C@H](CNc1ccc(C(=O)N[C@@H](CCC(=O)O)C(=O)O)cc1)N2C=O [Calcium Levofolinate],-7.67,-2.48,-0.475,0.435
Cc1nn(-c2ccccc2)c(C)c1C=NN1CCN(Cc2ccccc2)CC1,0.488,1.49,1.38,0.479
COc1cccc2c1C(=O)c1c(O)c3c(c(O)c1C2=O)C[C@@](O)(C(=O)CO)C[C@@H]3O[C@H]1C[C@H](N)[C@@H](O)[C@H](C)O1 [Epirubicin HCl],-11.5,-6.1,1.14,-0.719

# Rewritten tab-delimited: 2 of the compounds above
Structure (SMILES)	nucleus area z-score [1]	total neurite length per nucleus (z-score) [2]	nucleus roundness z-score [3]	KCl-induced FOS+/EGR-1+ double-positive nuclei fraction z-score [4]
CCCCCCCCCCCC1=C(O)C(=O)C=C(O)C1=O [Embelin]	-0.289	-0.142	0.351	-0.281
Nc1nc(=O)c2c([nH]1)NC[C@H](CNc1ccc(C(=O)N[C@@H](CCC(=O)O)C(=O)O)cc1)N2C=O [Calcium Levofolinate]	-7.67	-2.48	-0.475	0.435
